Assay results: paper doi:10.1101/2023.10.26.564242
Results are given in words; binding and its absence hold for the method and conditions named. Some results given as binding are weak or reduced against the parent protein; the word gives no strength. For some of these results: Where a sequence is shown, tags or fusion partners need not be part of it.

Experiments:
[1] = molecular target: T1, FHF containing HOOK3 residues 451-718 (human) (UniProt Q9H8T0+Q86VS8+Q8N612); assay: cryo-EM structure
[2] = molecular target: T2, full-length FTS-HOOK3-FHIP1B (FHF) complex (human) (UniProt Q9H8T0+Q86VS8+Q8N612); assay: cross-linking
[3] = molecular target: T3, FHF complex with HOOK3 residues 571-718 (FTS, HOOK3 571-718, FHIP1B) (human) (UniProt Q9H8T0+Q86VS8+Q8N612); assay: cross-linking
T3 sequence 1: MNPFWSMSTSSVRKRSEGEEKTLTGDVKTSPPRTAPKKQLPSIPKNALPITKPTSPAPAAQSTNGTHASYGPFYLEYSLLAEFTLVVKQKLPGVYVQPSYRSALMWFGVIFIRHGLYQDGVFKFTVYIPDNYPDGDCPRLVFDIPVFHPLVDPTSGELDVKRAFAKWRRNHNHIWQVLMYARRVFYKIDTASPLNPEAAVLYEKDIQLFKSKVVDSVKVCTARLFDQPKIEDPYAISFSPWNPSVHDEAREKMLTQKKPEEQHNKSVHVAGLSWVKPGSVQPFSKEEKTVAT
T3 sequence 2: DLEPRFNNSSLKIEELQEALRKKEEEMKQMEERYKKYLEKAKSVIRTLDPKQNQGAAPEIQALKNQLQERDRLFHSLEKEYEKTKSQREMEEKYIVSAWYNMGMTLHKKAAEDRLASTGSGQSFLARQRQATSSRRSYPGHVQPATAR
T3 sequence 3: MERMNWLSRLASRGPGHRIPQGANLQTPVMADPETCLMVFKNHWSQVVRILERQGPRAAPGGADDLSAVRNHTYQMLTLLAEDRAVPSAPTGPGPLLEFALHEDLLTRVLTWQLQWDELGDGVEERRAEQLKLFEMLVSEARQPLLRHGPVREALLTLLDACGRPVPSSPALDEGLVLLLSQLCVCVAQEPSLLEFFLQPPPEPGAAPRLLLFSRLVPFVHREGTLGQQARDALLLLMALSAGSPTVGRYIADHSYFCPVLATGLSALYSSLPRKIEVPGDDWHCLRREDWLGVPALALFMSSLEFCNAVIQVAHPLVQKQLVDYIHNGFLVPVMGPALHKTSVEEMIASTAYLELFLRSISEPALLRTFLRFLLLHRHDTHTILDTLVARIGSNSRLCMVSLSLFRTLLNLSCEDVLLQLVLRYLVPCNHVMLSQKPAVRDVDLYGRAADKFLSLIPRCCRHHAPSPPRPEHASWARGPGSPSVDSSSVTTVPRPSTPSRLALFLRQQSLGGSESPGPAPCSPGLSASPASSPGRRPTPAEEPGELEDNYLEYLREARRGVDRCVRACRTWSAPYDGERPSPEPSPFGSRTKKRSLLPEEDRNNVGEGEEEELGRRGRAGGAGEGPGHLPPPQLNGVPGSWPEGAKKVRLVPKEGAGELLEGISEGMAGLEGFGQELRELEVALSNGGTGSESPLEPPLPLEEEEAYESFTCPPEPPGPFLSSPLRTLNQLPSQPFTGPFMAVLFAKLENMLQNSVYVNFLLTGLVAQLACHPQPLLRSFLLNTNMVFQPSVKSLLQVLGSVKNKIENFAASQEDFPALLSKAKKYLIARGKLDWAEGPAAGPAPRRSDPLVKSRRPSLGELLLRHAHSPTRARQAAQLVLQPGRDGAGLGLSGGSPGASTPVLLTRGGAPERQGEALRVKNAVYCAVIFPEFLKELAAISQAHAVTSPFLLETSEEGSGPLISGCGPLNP

[4] = molecular target: T1, FHF containing HOOK3 residues 451-718 (human); assay: SEC
HOOK2 (human), Q96ED9 = molecular target: T4, HOOK2 (human), Q96ED9; assay: co-expression and co-purification; conditions: remark: other sources report otherwise
T4 chain: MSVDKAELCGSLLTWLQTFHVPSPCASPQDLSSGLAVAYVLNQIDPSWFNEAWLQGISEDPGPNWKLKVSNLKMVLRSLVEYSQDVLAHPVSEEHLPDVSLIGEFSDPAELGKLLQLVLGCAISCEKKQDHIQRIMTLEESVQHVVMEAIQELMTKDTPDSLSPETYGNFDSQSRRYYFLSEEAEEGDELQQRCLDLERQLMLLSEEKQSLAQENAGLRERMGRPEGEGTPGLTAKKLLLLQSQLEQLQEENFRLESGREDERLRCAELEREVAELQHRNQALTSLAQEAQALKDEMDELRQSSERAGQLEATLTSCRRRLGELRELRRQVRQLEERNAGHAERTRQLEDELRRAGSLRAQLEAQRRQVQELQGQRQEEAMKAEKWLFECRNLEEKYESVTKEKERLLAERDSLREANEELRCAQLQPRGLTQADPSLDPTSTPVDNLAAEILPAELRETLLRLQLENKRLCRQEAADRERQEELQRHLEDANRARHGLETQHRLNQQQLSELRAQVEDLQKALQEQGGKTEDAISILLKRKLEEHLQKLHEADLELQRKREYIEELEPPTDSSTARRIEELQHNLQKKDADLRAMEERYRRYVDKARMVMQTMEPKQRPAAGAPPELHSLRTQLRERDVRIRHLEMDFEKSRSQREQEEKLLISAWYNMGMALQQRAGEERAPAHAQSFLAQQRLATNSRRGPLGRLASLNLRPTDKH

[5] = molecular target: T2, full-length FTS-HOOK3-FHIP1B (FHF) complex (human); assay: SEC

B1: GST-KIF1C stalk 674-922 (domain or fragment, UniProt O43896 674-922)
chain: SDSGDDSDKRSCEESWRLISSLREQLPPTTVQTIVKRCGLPSSGKRRAPRRVYQIPQRRRLQGKDPRWATMADLKMQAVKEICYEVALADFRHGRAEIEALAALKMRELCRTYGKPDGPGDAWRAVARDVWDTVGEEEGGGAGSGGGSEEGARGAEVEDLRAHIDKLTGILQEVKLQNSSKDRELQALRDRMLRMERVIPLAQDHEDENEEGGEVPWAPPEGSEAAEEAAPSDRMPSARPPSPPLSSWE
- binding [1]: binds
- binding [2]: binds
- binding [3]: binds
- binding [4]: binds

B2: FHIP1B, Q8N612 1-972 (protein)
chain: T3 sequence 3
- binding (HOOK2 (human), Q96ED9): binds

B3: GST-KIF1C stalk (residues 642-922) (domain or fragment, UniProt O43896 642-922)
chain: EMEKRLQDLENQYRKEKEEADLLLEQQRLYADSDSGDDSDKRSCEESWRLISSLREQLPPTTVQTIVKRCGLPSSGKRRAPRRVYQIPQRRRLQGKDPRWATMADLKMQAVKEICYEVALADFRHGRAEIEALAALKMRELCRTYGKPDGPGDAWRAVARDVWDTVGEEEGGGAGSGGGSEEGARGAEVEDLRAHIDKLTGILQEVKLQNSSKDRELQALRDRMLRMERVIPLAQDHEDENEEGGEVPWAPPEGSEAAEEAAPSDRMPSARPPSPPLSSWE
- binding [5]: binds

B4: GST-KIF1C stalk 642-922 ∆722-840 (domain or fragment, UniProt O43896)
chain: EMEKRLQDLENQYRKEKEEADLLLEQQRLYADSDSGDDSDKRSCEESWRLISSLREQLPPTTVQTIVKRCGLPSSGKRRATGILQEVKLQNSSKDRELQALRDRMLRMERVIPLAQDHEDENEEGGEVPWAPPEGSEAAEEAAPSDRMPSARPPSPPLSSWE
- binding [5]: no binding
